Source: paper PMC10618185
Results are given in words; binding and its absence hold for the method and conditions named. In cells and extracts the contact can be indirect. Here binding means that the protein was enriched with, or labelled near, the bait; the list need not be complete. For part of these data: No binding means not detected with the bait. Sequences can lack the tags named with a protein.

T1: Myc-VPS8 (human (cDNA from HeLa Kyoto cells)), Q8N3P4
T1 chain: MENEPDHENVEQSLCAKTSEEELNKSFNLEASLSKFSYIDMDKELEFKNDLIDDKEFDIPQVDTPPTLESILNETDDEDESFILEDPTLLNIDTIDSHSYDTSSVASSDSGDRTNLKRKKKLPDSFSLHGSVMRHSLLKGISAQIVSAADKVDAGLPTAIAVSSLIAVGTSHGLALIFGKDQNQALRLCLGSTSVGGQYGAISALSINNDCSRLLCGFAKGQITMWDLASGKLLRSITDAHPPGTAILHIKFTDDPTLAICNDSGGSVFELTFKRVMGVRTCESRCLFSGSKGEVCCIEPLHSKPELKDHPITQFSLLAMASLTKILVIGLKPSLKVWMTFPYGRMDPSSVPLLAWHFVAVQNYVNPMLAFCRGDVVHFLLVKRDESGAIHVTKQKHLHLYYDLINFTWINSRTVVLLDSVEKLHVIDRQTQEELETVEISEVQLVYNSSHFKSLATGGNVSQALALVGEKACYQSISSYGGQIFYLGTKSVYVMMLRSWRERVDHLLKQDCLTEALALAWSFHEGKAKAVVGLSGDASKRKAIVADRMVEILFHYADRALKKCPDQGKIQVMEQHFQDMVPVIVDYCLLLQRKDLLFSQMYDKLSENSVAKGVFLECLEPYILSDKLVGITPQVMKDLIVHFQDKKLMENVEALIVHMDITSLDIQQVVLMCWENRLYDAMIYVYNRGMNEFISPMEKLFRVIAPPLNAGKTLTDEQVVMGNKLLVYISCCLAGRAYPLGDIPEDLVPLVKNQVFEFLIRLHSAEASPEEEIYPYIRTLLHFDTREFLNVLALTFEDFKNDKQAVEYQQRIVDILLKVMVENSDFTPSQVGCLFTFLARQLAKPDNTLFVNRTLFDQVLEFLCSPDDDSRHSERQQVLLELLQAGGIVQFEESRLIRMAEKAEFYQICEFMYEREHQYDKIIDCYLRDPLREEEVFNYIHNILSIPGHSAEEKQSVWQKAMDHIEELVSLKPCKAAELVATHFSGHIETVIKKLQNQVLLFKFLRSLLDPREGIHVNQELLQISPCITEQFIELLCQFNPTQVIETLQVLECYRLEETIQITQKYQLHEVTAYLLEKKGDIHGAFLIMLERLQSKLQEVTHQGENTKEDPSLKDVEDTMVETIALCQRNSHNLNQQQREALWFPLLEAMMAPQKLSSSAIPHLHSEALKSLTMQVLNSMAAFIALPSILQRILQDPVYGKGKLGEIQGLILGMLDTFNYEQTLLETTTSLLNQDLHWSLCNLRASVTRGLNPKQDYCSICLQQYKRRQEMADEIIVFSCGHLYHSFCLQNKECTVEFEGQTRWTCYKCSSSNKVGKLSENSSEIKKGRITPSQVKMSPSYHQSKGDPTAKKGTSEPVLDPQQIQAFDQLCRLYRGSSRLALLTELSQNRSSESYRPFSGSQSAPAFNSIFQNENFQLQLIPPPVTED

T2: HA-VPS3 (human (cDNA from HeLa Kyoto cells)), Q8WUH2
T2 chain: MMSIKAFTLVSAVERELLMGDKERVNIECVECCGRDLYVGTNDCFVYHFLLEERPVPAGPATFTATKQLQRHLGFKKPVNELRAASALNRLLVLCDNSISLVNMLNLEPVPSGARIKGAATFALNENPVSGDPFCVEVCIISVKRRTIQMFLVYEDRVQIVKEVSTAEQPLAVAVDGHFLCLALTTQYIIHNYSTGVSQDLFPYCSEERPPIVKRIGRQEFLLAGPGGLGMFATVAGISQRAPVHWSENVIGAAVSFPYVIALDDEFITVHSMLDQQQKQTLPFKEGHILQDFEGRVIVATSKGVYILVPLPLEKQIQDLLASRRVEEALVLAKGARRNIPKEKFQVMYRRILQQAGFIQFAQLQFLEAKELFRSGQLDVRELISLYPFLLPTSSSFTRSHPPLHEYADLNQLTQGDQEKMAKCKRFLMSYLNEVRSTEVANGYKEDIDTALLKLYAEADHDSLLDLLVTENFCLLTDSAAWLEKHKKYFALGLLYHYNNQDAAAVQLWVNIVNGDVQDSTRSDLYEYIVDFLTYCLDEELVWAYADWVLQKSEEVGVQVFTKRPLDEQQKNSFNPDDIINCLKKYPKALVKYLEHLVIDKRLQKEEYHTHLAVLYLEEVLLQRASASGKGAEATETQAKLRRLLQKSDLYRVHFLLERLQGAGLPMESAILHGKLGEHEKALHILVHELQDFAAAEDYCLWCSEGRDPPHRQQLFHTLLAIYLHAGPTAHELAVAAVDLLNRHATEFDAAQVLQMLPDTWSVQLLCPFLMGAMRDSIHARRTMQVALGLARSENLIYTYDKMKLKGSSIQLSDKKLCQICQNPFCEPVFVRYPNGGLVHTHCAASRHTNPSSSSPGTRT

T3: HA-VPS3 (human (cDNA from HeLa Kyoto cells)) (UniProt Q8WUH2)
T3 sequence: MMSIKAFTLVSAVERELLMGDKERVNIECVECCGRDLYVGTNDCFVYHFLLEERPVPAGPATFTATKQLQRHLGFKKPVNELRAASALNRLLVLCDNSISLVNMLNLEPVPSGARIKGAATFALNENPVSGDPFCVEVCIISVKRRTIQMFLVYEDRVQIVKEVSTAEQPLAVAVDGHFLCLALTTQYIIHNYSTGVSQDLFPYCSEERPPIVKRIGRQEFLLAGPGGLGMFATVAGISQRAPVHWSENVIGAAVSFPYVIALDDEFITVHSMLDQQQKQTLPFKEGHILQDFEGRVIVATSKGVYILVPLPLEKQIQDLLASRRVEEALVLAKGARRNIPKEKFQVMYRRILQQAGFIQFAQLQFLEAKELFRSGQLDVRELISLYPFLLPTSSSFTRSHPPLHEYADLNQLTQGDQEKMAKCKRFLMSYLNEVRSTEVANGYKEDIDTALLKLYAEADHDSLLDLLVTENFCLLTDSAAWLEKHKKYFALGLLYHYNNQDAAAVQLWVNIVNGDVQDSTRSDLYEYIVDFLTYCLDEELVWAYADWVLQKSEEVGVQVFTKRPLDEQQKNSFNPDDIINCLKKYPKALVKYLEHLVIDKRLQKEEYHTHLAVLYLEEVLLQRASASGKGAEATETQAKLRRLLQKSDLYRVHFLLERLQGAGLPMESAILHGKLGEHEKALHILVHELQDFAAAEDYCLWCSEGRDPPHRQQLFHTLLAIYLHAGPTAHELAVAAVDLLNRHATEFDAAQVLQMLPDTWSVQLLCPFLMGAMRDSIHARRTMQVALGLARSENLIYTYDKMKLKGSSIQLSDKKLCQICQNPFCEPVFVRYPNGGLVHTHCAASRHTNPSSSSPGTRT


Tests used:
Test in all cases: affinity purification with mass spectrometry; WT HeLa cells with single expression of Myc- or HA-tagged bait; IP with anti-Myc or anti-HA antibodies and magnetic beads; eluate resolved by SDS-PAGE, in-gel trypsin digestion, LC-MS/MS (MASCOT, Scaffold 5); high probability threshold
[1] = biological target: T1, Myc-VPS8 (human (cDNA from HeLa Kyoto …)); settings: remark: other sources report otherwise
[2] = biological target: T2, HA-VPS3 (human (cDNA from HeLa Kyoto …)); settings: remark: other sources report otherwise
[3] = biological target: T3, HA-VPS3 (human (cDNA from HeLa Kyoto cells))

Row | binding [1] | binding [2] | binding [3] | Binder
1 | no binding | binds | – | endogenous VPS41, P49754 1-854 (protein) MAEAEEQETGSLEESTDESEEEESEEEPKLKYERLSNGVTEILQKDAASCMTVHDKFLALGTHYGKVYLLDVQGNITQKFDVSPVKINQISLDESGEHMGVCSEDGKVQVFGLYSGEEFHETFDCPIKIIAVHPHFVRSSCKQFVTGGKKLLLFERSWMNRWKSAVLHEGEGNIRSVKWRGHLIAWANNMGVKIFDIISKQRITNVPRDDISLRPDMYPCSLCWKDNVTLIIGWGTSVKVCSVKERHASEMRDLPSRYVEIVSQFETEFYISGLAPLCDQLVVLSYVKEISEKTEREYCARPRLDIIQPLSETCEEISSDALTVRGFQENECRDYHLEYSEGESLFYIVSPRDVVVAKERDQDDHIDWLLEKKKYEEALMAAEISQKNIKRHKILDIGLAYINHLVERGDYDIAARKCQKILGKNAALWEYEVYKFKEIGQLKAISPYLPRGDPVLKPLIYEMILHEFLESDYEGFATLIREWPGDLYNNSVIVQAVRDHLKKDSQNKTLLKTLAELYTYDKNYGNALEIYLTLRHKDVFQLIHKHNLFSSIKDKIVLLMDFDSEKAVDMLLDNEDKISIKKVVEELEDRPELQHVYLHKLFKRDHHKGQRYHEKQISLYAEYDRPNLLPFLRDSTHCPLEKALEICQQRNFVEETVYLLSRMGNSRSALKMIMEELHDVDKAIEFAKEQDDGELWEDLILYSIDKPPFITGLLNNIGTHVDPILLIHRIKEGMEIPNLRDSLVKILQDYNLQILLREGCKKILVADSLSLLKKMHRTQMKGVLVDEENICESCLSPILPSDAAKPFSVVVFHCRHMFHKECLPMPSMNSAAQFCNICSAKNRGPGSAILEMKK
2 | – | – | no binding | endogenous VPS39 (protein, UniProt Q96JC1 1-886) MHDAFEPVPILEKLPLQIDCLAAWEEWLLVGTKQGHLLLYRIRKDVVPADVASPESGSCNRFEVTLEKSNKNFSKKIQQIHVVSQFKILVSLLENNIYVHDLLTFQQITTVSKAKGASLFTCDLQHTETGEEVLRMCVAVKKKLQLYFWKDREFHELQGDFSVPDVPKSMAWCENSICVGFKRDYYLIRVDGKGSIKELFPTGKQLEPLVAPLADGKVAVGQDDLTVVLNEEGICTQKCALNWTDIPVAMEHQPPYIIAVLPRYVEIRTFEPRLLVQSIELQRPRFITSGGSNIIYVASNHFVWRLIPVPMATQIQQLLQDKQFELALQLAEMKDDSDSEKQQQIHHIKNLYAFNLFCQKRFDESMQVFAKLGTDPTHVMGLYPDLLPTDYRKQLQYPNPLPVLSGAELEKAHLALIDYLTQKRSQLVKKLNDSDHQSSTSPLMEGTPTIKSKKKLLQIIDTTLLKCYLHTNVALVAPLLRLENNHCHIEESEHVLKKAHKYSELIILYEKKGLHEKALQVLVDQSKKANSPLKGHERTVQYLQHLGTENLHLIFSYSVWVLRDFPEDGLKIFTEDLPEVESLPRDRVLGFLIENFKGLAIPYLEHIIHVWEETGSRFHNCLIQLYCEKVQGLMKEYLLSFPAGKTPVPAGEEEGELGEYRQKLLMFLEISSYYDPGRLICDFPFDGLLEERALLLGRMGKHEQALFIYVHILKDTRMAEEYCHKHYDRNKDGNKDVYLSLLRMYLSPPSIHCLGPIKLELLEPKANLQAALQVLELHHSKLDTTKALNLLPANTQINDIRIFLEKVLEENAQKKRFNQVLKNLLHAEFLRVQEERILHQQVKCIITEEKVCMVCKKKIGNSAFARYPNGVVVHYFCSKEVNPADT
